Source: patent US20260028421A1
Changes are numbered by the printed parent chain. These are yes or no findings as the source states them, for the method shown. Binding calls can cover weak binding; strength is not graded here.

B1: P1-C6 CHI (antibody, human IgG1, kappa, V domains shown)
VH: QVQLQQSGAELARPGASVKLSCKASGYTFTSYGITWVKRRTGQGLGWIGEIYPRSGNTYYNEKFKGKATLTADKSSSTAYMELRSLTSEDSAVYFCARAITTVVGDWYFDVWGTGTTVTVSS
VL: DIVLTQSPASLAMSLGKRATISCRASESVSLIGTNLIHWYQQKPGQPPKLLIHHASNLEAGVPARFSGSGSRTDFTLTIDPVEEDDVAIYYCLQSRKIRTFGGGTKLEIKR
B2: P1-D9 CHI (antibody, human IgG1, kappa, V domains shown)
VH: EVQLVESGGGLVKPGGSLKLSCAASGFSFSDYGMHWVRQAPEKGLEWIAHISSGSSTIYYADTVKGRFTISRDNAKNTLFLQMTSLRSEDTAMYYCARSRNYYGSRIFDYWGQGTTLTVSS
VL: QIVLTQSPARMSASPGEKVTMTCSASSSVSYMYWYQQKPRSSPKPWIYLTSNLASGVPARFSGSGSGTSYSLTISSMEAEDAATYYCQQWSSNPPTFGSGTKLEIKR
B3: P1-F10 CHI (antibody, human IgG1, kappa, V domains shown)
VH: B2 VH with S28A, I48V, A75V, I107V, T116P
VL: B2 VL with R10L, A13V, S30N, S91N
B4: P3-B4 CHI (antibody, human IgG1, kappa, V domains shown)
VH: QIQLVQSGPELKKPGEIVKISCKASGYTFTTYGMSWVKQAPGKGLKWMGWINTYSGVPTYADDFKGRFAFSLETSASTAYLQINNLKNEDTATYFCARRAGSSLYYYAMDYWGQGTSVTVSS
VL: B2 VL with R10I, Y33L, P39S, R40G, S41T, P45R, L49D, N52K, S99G
B5: P3-E4 CHI (antibody, human IgG1, kappa, V domains shown)
VH: QVQLQQPGAELVMPGAAVKLSCKASGYTFINYWMHWLKQRPGQGLEWIGEIDPSDGYTDYNQKFKGKATLTVDKSSSTAYMQLSSLTSEDSAVYYCAISLRGPITFGPFPYWGQGTLVTVSS
VL: DIVLTQSPASLAVSLGQRATISCRASESVSIHGTHLMHWYQQKPGQPPKLLIYAASNLESGVPARFSGSGSETDFTLNIHPVAEEDAATYFCQHSIEDPRTFGGGTKLEIKR
B6: P3-D9 CHI (antibody, human IgG1, kappa, V domains shown)
VH: B2 VH with S28A, I48V, A61G, A97T, I107V
VL: B2 VL with R10L, A13V, N52S, S75N, S76N, M77V, L103V
B7: P3-C7 CHI (antibody, human IgG1, kappa, V domains shown)
VH: EVQLQQSGPVLLKPGASVKMSCKASGYTFTDHYIHWVKLSHGKSLEWIGVINPYNDGATYNQKFKGKATLTVDKSSSTAYMELNSLTSEDSAVYYCARPPRAYGNYAGYWGQGTTLTVSS
VL: DVVMTQTPLSLPVSLGDQASISCRSSQSLVHSNGNTYLHWYLQKPGQSPKLLIYKVSNRFSGVPDRFIGSGSRTDFTLKISRVEAEDLGVYFCSQSTHVPYTFGGGTRLEIKR
B8: P1-D2 CHI (antibody, human IgG1, kappa, V domains shown)
VH: EFQLQQSGPELVKPGASVKISCKASGYSFTDHNMNWVKQSNGKSLEWIGVINPKYGTISNNQKFKGKATLTVDQSSSTAYMQLNSLTAEDSAVYYCARDDYPNYFDYWGQGTTLTVSS
VL: QIVLTQSPAIMSASPGEKVTISCSANSSVNYIYWYQQKPGSSPKPWIYRTSNLASGVPARFSGSGSGTSYSLTISSMEAEDAATYYCQQYHSFPPTFGGGTKLEIKR
B9: P1-D3 CHI (antibody, human IgG1, kappa, V domains shown)
VH: B4 VH with V5I, I17T, S77N, A100G, G101Y, S103N, M109L, T116A
VL: QIVLTQSPAIMSASPGEKVTMTCSASSSVNYMHWYQQKSGTSPKRWIYDTSKLASGVPTRFSGSGSGTSYSLTISSMEAEDAATYFCQQWSSNPSTFGGGTKLEIKR

Molecular target: cynoGUCY2C ECD-His (ACRO #GUC-C52H6) (cynomolgus monkey)
Test: screening of chimeric antibodies, SPR and cell binding

binding, binds:
B1
B2
B3
B4
B5
B6
B7
B8
B9
